# This is one part of the list. For some assays here: The source does not settle which construct or isoform was used.
# Chains of the proteins cited; added tags and fusions are not shown. Lines headed by an entry give the natural chain unless they say otherwise; changes in a name come on top.
# UniProt Q12904: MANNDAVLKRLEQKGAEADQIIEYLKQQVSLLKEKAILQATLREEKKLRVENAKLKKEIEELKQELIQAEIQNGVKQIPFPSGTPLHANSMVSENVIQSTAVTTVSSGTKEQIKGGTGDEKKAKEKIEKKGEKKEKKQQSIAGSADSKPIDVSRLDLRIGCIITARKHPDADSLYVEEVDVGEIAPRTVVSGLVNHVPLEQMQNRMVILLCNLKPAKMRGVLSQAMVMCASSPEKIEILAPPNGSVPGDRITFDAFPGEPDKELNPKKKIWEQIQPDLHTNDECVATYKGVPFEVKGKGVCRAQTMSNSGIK
# How the values were obtained:
# Assay in all cases: protein microarray (ProtoArray v5.0), streptavidin-Alexa Fluor 647
# Conditions in all cases: 3'-biotin; 20 mM Tris (pH 7.5), 5 mM MgCl2, 100 mM KCl, 0.1% Tween-20, A/T-rich and random oligonucleotide blockers; temperature not stated; high values mean tight binding
# S100A8 (human) = system: S100A8 (human)
# SAA1 (human) = system: SAA1 (human)
# SAA4 (human) = system: SAA4 (human)
# SAE1 (human) = system: SAE1 (human)
# SAMD3 (human) = system: SAMD3 (human)
# SAMD4A (human) = system: SAMD4A (human)
# SAPS2 (human) = system: SAPS2 (human)
# SAR1A (human) = system: SAR1A (human)
# SAR1B (human) = system: SAR1B (human)
# SCAMP2 (human) = system: SCAMP2 (human)
# SCC-112 (human) = system: SCC-112 (human)
# SCEL = target: T1, SCEL (UniProt O95171)
# T1 sequence: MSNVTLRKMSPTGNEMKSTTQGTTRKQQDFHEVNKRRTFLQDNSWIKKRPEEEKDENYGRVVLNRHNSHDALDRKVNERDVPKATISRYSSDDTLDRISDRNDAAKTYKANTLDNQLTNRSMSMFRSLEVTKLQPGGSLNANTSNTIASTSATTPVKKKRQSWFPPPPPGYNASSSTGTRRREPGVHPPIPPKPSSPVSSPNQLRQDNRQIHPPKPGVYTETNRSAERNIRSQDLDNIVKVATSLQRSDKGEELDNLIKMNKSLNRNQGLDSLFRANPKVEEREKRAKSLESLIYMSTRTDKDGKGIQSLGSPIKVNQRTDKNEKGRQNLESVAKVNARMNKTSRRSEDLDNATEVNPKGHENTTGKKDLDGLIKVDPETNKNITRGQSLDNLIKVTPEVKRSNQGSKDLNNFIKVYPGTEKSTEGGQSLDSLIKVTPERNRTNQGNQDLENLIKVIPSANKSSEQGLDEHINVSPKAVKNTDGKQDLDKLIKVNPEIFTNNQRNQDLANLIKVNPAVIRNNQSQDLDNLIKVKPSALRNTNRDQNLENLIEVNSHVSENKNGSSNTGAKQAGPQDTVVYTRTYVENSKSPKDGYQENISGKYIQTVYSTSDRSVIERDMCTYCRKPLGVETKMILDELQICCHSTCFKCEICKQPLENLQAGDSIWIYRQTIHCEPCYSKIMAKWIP
# SCGB1A1 (human) = system: SCGB1A1 (human)
# SCGB1C1 (human) = system: SCGB1C1 (human)
# SCGB3A1 (human) = system: SCGB3A1 (human)
# SCP2 (human) = system: SCP2 (human)
# SCYE1 = SCYE1 (UniProt Q12904)
# SDC1 (human) = system: SDC1 (human)
# SDC4 (human) = system: SDC4 (human)
# SDSL (human) = system: SDSL (human)
sequence,measurement,setting,value
GGTGACAGGGGTATGGGGAGGGG [G4-2 biotinylated (Ct1)],binding signal,S100A8 (human),-0.403 z-score
same,binding signal,SAA1 (human),-0.382 z-score
same,binding signal,SAA4 (human),-0.376 z-score
same,binding signal,SAE1 (human),-0.396 z-score
same,binding signal,SAMD3 (human),-0.378 z-score
same,binding signal,SAMD4A (human),-0.385 z-score
same,binding signal,SAPS2 (human),-0.397 z-score
same,binding signal,SAR1A (human),-0.394 z-score
same,binding signal,SAR1B (human),-0.4 z-score
same,binding signal,SCAMP2 (human),-0.384 z-score
same,binding signal,SCC-112 (human),3.45 z-score
same,binding signal,SCEL,3.91 z-score
same,binding signal,SCGB1A1 (human),-0.4 z-score
same,binding signal,SCGB1C1 (human),-0.396 z-score
same,binding signal,SCGB3A1 (human),-0.364 z-score
same,binding signal,SCP2 (human),-0.399 z-score
same,binding signal,SCYE1,5.44 z-score
same,binding signal,SDC1 (human),-0.383 z-score
same,binding signal,SDC4 (human),-0.369 z-score
same,binding signal,SDSL (human),-0.397 z-score

# 4 successive entries out of the list so far, for reference:
sequence,measurement,setting,value
GGTGACAGGGGTATGGGGAGGGG [G4-2 biotinylated (Ct1)],binding signal,SCGB1C1 (human),-0.396 z-score
same,binding signal,SCGB3A1 (human),-0.364 z-score
same,binding signal,SCP2 (human),-0.399 z-score
same,binding signal,SCYE1,5.44 z-score

# Source: publication PMC5996148
